From PubChem BioAssay AID1671190 (National Center for Advancing Translational Sciences (NCATS), 2021)
About 6,100 (1.1%) of roughly 580,000 compounds were called active. The shares of active, inactive and inconclusive entries below differ from those in the screen. Calls follow the shape of the dose curve; as a rule, active = well fitted inhibition curve with a large enough effect; inconclusive = small, poorly fitted or top-dose-only effect, or another doubt; inactive = no such curve, though single readings can be large or run the other way. Potencies beside an inconclusive call are fits to weak or partial responses and may not hold up.

Amino acid sequences for entries named in this document (tags omitted). A change or cut given only in a name is not applied to a line headed by its entry.
UniProt P18054: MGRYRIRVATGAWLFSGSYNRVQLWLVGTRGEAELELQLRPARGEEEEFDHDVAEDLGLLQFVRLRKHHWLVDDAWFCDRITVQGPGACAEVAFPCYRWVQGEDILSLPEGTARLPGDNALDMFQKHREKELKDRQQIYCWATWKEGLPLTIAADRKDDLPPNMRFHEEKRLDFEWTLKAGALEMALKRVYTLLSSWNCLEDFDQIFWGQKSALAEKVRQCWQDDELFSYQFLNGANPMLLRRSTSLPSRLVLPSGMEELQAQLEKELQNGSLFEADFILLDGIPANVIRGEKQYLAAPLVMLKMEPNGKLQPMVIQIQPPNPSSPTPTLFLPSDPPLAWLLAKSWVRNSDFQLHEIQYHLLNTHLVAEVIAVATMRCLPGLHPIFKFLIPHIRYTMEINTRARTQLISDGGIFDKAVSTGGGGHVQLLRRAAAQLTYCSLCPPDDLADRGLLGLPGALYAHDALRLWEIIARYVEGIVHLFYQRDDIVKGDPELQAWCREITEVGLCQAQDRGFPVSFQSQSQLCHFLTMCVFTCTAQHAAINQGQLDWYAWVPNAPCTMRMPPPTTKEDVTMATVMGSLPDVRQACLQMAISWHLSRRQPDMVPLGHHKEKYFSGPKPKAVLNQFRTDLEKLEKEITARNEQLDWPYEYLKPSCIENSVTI

target: Polyunsaturated fatty acid lipoxygenase ALOX12 (Homo sapiens) (UniProt P18054); assay: Primary qHTS assay for inhibitors of human arachidonate 12S-lipoxygenase (ALOX12): Round 2; details: purified 12hLO, xylenol orange hydroperoxide absorbance; series mostly up to 108 µM
Summary of the method: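 Hydroperoxide product was detected by ferrous iron/xylenol orange as the 573 to 405 nm absorbance ratio. Arachidonic acid at 40 uM (final) was turned over for 30 min at room temperature by 150 nM human 12hLO, pH 7.0 Hepes buffer, after 15 min compound preincubation.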
Potency is read from the fitted curve at half-maximal effect.

Row | SMILES | Potency
1 | Cc1cc(NC(=O)C(C)SCC(=O)N(C)Cc2c(F)cccc2Cl)no1 (configuration not stated) | inconclusive: 39.8 µM [inhibitor, partial curve, poor fit]
2 | Cc1ccc(C(C)(C)C)cc1S(=O)(=O)Nc1cccc(C(=O)N2CCN(c3ccccn3)CC2)c1 | inactive
3 | Oc1cc2c(cc1O)[C@@H](c1ccccc1)CNCC2 | inconclusive: 31.6 µM [inhibitor, partial curve]
4 | C/C(Cc1ccccc1)=N\NC(=O)c1ccc(C)cc1 | inactive
5 | Cc1noc(C)c1NC(=O)N(C)C[C@@H]1OCc2cnnn2CCCC(=O)N([C@H](C)CO)C[C@@H]1C | inconclusive: 44.7 µM [inhibitor, single point]
6 | COc1ccc(CCN2CC(C(=O)NCCCc3ccncc3)CCC2=O)cc1 (configuration not stated) | inconclusive: 100 µM [inhibitor, partial curve, poor fit]
7 | CC(=O)Nc1ccc(NC(=O)CCN2C(=O)c3ccccc3C2=O)cc1 | inconclusive: 1 µM [inhibitor, full curve, poor fit]
8 | CCC(=O)c1ccc(OCC(O)CN2CC(C)OC(C)C2)cc1 (configuration not stated) | inconclusive: 2 µM [inhibitor, full curve, poor fit]
9 | O=[N+]([O-])c1ccc(Sc2cc[n+]([O-])c3ccccc23)c([N+](=O)[O-])c1 | inactive
10 | Cc1cccc(CN2CCCC(C(=O)O)CCNC(=O)CC2)c1 (configuration not stated) | inactive
11 | Cc1nc2cc(NC(C)C(=O)Nc3ccccc3C)ccc2o1 (configuration not stated) | inconclusive: 44.7 µM [inhibitor, partial curve, poor fit]
12 | S=c1nc(-c2cc(Cl)cc(Cl)c2)[nH][nH]1 | inconclusive: 100 µM [inhibitor, single point]
13 | Cc1cccn2c(=O)c(C=NCc3ccco3)c(Nc3ccc(SC(F)F)cc3)nc12 | inconclusive: 50.1 µM [inhibitor, full curve, poor fit]
14 | CN1CCN(S(=O)(=O)c2ccc(SCc3cc(Cl)c4c(c3)OCCO4)nc2)CC1 | inconclusive: 7.94 µM [inhibitor, full curve, poor fit]
15 | N#Cc1c(-c2ccccc2)nc(SCc2nc(N)nc(N3CCCCC3)n2)[nH]c1=O | inconclusive: 1.78 µM [inhibitor, full curve, poor fit]
16 | CCOC(=O)c1nc(N/N=C/c2ccccc2)sc1Br | inactive
17 | COc1ccc(N/N=C(C)/C(=N/O)C(=O)Nc2ccccc2)cc1 | inconclusive: 39.8 µM [inhibitor, partial curve, poor fit]
18 | COC(=O)c1ccc(NC(=O)Cn2nc(-n3nc(C)cc3C)ccc2=O)cc1 | inactive
19 | CCOc1cccc(-c2cc(C(=O)O)c3cccc(C)c3n2)c1 | inactive
20 | O=C(c1ccc(OCc2cn3ccccc3n2)cc1)N1CCN(c2ncccn2)CC1 | inactive
21 | COc1cc(NC(=O)c2ccccc2Cl)c2ncccc2c1 | inactive

Row | SMILES | Potency
22 | Cc1sc(-c2nc(-c3cccc(Cl)c3)no2)cc1S(=O)(=O)N1CCC2(CC1)OCCO2 | inactive
23 | O=C(CSc1ccc(Br)cc1)NCC1(N2CCCCC2)CCCCC1 | inconclusive: 79.4 µM [inhibitor, single point]
24 | Cc1cc(C(F)(F)F)nc(CCNCc2c(C(=O)N3CCCC3)nc3ccccn23)n1 | inactive
25 | O=C(CCNS(=O)(=O)c1ccc2c(c1)CCCC(=O)N2)NCc1ccc(Cl)cc1 | inconclusive: 0.0891 µM [inhibitor, full curve, poor fit]
26 | CC1CC(C)CN(C(=O)C(C)N2CCN(S(=O)(=O)c3ccc(C(F)(F)F)cc3)CC2)C1 (configuration not stated) | inactive
27 | OCCCNC(=S)NC1CCCC1 | inconclusive: 44.7 µM [inhibitor, partial curve, poor fit]
28 | Cc1nn(-c2ccccc2)c(N)c1N=Nc1ccc(Cl)cc1 | inconclusive: 39.8 µM [inhibitor, partial curve, poor fit]
29 | O=C1C=CC(=O)N1Cc1ccncc1 | inconclusive: 31.6 µM [inhibitor, partial curve]
30 | CC(C)NC(=O)COc1ncnc2ccc(Br)cc12 | inactive
31 | COc1ccc(CN(CCN(C)C)Cc2ccccc2)c(OC)c1 | inconclusive: 0.891 µM [inhibitor, full curve, poor fit]
32 | O=C(Oc1cccc(NC(=O)c2ccco2)c1)c1cccc(S(=O)(=O)N2CCCCC2)c1 | inactive
33 | COc1ccc(C(=O)C2CCCN(Cc3cc(Cl)ccc3O)C2)c(OC)c1 (configuration not stated) | inconclusive: 50.1 µM [inhibitor, partial curve, poor fit]
34 | CCc1ccc(C(=O)/C=C/c2ccc([N+](=O)[O-])o2)cc1 | inconclusive: 70.8 µM [inhibitor, partial curve, poor fit]
35 | C=CCNc1nc(Nc2ccc(OC)c(OC)c2)c2sc(-c3ccccc3)cc2n1 | inconclusive: 39.8 µM [inhibitor, partial curve, poor fit]
36 | COc1ccccc1NC(=S)N(CCc1ccc(OC)c(OC)c1)Cc1ccccn1 | inconclusive: 89.1 µM [inhibitor, partial curve, poor fit]
37 | CCOC(=O)c1cc(C)sc1N1C(=O)C2C3C=CC(C3)C2C1=O (configuration not stated) | inconclusive: 44.7 µM [inhibitor, partial curve, poor fit]
38 | COc1cccc([S+](=O)([O-])N2CCC3(C2)C(=O)N(C)c2ccccc23)c1 (configuration not stated) | inconclusive: 17.8 µM [inhibitor, full curve]
39 | Cn1c(C(=O)N[C@@H](Cc2ccccc2)C(=O)O)cc2cc(Cl)ccc21 | inconclusive: 39.8 µM [inhibitor, partial curve, poor fit]
40 | CCCOc1ccc(C(=O)C(CCC(CNCC)C(=O)c2ccc(OCCC)cc2)CNCC)cc1 (configuration not stated) | inconclusive: 44.7 µM [inhibitor, partial curve, poor fit]
41 | CC1(C)Oc2ccc3ccc(=O)oc3c2/C(=C/Nc2cccc(O)c2)C1=O | inconclusive: 44.7 µM [inhibitor, partial curve, poor fit]
42 | COc1cccc(C(=O)Nc2nc(C)cs2)c1 | inconclusive: 100 µM [inhibitor, single point]

In the list so far, these contain bromine:
Row | SMILES | Potency
16 | CCOC(=O)c1nc(N/N=C/c2ccccc2)sc1Br | inactive
23 | O=C(CSc1ccc(Br)cc1)NCC1(N2CCCCC2)CCCCC1 | inconclusive: 79.4 µM [inhibitor, single point]
30 | CC(C)NC(=O)COc1ncnc2ccc(Br)cc12 | inactive
